Reference: the supplement of paper PMC12067093, “Discovery and optimisation of a covalent ligand for TRIM25 and its application to targeted protein ubiquitination” (Chemical Science, 2025)
This is one part of the list.

Protein sequences, listed by entry. Tags and fused reporters are not part of them. Lines headed by an entry give the natural chain unless they say otherwise; changes in a name come on top.
UniProt P09543: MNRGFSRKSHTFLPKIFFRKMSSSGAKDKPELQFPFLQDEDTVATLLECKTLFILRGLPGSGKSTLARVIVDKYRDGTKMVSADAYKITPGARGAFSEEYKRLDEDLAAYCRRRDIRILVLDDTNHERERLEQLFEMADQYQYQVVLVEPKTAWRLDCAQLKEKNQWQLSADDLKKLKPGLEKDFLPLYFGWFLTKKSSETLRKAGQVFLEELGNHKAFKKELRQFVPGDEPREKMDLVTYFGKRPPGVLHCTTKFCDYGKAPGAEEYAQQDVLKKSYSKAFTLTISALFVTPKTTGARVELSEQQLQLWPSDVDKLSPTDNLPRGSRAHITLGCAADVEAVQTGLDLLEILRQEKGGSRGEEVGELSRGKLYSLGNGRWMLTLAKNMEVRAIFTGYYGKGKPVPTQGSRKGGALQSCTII
UniProt A5YKK6, whole entry, looked up: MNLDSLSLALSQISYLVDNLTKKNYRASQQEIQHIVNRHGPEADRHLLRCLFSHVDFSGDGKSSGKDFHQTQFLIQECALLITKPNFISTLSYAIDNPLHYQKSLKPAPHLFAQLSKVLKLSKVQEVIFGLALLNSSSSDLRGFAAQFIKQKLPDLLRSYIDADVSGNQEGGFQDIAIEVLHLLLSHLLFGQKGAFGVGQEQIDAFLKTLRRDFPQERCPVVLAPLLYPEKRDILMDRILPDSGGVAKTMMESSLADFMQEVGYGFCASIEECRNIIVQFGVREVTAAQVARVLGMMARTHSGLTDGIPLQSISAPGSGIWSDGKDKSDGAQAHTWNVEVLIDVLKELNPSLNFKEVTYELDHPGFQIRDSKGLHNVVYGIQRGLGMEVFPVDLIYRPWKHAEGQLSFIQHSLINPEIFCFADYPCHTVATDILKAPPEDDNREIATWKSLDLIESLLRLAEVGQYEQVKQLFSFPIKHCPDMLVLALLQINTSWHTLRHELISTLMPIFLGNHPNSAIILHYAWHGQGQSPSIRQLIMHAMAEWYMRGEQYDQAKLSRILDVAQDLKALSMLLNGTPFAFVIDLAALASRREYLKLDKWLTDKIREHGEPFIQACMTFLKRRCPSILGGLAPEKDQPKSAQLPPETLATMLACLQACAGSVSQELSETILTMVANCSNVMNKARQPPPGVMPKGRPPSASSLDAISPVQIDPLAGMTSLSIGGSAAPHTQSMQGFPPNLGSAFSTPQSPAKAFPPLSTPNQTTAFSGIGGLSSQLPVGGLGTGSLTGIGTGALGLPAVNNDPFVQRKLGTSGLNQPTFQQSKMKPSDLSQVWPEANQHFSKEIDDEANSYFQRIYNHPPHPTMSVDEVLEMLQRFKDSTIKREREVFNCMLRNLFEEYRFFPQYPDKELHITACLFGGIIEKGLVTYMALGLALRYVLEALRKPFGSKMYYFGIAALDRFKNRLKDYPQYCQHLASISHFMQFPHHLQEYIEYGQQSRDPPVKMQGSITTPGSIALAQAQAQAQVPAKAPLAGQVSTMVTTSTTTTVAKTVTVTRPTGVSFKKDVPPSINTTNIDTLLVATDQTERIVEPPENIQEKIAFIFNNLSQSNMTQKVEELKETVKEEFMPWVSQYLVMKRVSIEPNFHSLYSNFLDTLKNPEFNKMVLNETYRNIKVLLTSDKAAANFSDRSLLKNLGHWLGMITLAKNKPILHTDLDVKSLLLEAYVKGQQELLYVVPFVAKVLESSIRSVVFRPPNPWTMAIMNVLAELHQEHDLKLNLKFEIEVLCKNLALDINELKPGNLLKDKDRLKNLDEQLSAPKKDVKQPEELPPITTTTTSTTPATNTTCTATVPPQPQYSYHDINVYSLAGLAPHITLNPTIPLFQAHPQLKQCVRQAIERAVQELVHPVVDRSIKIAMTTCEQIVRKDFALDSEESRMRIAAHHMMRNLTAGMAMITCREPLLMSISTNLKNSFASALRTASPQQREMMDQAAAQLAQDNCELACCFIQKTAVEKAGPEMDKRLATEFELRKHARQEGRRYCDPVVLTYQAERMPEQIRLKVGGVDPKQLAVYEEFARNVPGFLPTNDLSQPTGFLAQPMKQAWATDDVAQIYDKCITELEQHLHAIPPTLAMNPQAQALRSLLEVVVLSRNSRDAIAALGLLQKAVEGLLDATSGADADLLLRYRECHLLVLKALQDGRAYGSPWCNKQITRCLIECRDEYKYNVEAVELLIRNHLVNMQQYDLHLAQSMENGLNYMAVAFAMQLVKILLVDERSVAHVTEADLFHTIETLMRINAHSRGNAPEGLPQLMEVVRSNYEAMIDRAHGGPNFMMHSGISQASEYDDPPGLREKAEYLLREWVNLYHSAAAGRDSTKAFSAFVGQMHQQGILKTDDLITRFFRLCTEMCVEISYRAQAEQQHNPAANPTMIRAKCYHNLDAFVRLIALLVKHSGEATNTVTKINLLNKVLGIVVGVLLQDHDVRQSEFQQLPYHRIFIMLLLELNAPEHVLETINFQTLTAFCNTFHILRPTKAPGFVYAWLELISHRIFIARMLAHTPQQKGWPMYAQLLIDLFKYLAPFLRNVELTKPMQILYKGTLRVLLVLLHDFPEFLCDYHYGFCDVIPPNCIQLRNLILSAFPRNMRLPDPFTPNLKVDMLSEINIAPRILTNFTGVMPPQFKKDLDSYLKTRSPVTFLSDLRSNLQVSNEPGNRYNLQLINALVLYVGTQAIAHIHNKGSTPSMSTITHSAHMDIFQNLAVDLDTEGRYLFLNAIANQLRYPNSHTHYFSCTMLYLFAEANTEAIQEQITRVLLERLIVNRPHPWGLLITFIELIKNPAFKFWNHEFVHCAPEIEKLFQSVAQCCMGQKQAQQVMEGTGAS
UniProt Q8IY22: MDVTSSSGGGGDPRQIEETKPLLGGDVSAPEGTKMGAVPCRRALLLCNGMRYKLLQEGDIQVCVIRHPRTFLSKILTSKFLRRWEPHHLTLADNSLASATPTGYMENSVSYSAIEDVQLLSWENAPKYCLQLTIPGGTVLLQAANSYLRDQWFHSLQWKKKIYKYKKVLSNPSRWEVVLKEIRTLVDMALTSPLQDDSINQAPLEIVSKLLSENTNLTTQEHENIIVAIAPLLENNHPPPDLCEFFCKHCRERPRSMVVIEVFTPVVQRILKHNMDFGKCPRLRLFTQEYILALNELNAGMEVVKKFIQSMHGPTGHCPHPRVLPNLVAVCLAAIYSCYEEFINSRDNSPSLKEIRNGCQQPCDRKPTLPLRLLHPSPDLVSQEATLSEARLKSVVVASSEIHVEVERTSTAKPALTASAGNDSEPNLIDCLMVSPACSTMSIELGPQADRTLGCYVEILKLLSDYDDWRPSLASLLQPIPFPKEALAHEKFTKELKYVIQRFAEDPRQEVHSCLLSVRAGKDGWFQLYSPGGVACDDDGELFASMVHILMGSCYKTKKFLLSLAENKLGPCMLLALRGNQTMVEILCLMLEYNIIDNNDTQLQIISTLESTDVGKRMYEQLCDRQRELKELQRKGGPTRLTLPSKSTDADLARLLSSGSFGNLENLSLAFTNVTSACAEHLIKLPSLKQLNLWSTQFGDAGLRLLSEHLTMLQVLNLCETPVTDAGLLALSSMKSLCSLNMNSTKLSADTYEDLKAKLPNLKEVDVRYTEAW
UniProt Q9Y678: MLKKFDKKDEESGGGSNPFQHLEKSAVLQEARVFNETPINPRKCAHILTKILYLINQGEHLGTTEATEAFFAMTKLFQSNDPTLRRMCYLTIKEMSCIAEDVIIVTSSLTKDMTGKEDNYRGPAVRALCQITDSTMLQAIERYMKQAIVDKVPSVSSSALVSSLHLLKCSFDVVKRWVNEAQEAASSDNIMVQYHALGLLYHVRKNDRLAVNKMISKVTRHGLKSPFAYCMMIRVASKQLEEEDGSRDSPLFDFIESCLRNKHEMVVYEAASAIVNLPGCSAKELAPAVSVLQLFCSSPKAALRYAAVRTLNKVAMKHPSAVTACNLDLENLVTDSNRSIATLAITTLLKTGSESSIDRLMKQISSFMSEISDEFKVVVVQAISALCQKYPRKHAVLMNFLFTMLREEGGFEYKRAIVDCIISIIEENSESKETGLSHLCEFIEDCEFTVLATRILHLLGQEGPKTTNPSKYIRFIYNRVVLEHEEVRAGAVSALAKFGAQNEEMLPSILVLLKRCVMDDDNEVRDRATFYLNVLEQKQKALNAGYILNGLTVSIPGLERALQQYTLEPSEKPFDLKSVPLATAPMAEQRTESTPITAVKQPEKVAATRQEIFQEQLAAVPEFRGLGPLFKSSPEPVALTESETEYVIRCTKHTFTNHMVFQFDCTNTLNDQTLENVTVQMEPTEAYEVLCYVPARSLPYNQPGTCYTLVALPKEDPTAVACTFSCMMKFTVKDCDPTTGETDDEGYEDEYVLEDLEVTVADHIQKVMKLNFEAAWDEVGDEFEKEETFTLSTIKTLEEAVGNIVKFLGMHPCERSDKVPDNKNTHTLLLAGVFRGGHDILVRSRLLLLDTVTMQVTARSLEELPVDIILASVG
UniProt Q92600, whole entry, looked up: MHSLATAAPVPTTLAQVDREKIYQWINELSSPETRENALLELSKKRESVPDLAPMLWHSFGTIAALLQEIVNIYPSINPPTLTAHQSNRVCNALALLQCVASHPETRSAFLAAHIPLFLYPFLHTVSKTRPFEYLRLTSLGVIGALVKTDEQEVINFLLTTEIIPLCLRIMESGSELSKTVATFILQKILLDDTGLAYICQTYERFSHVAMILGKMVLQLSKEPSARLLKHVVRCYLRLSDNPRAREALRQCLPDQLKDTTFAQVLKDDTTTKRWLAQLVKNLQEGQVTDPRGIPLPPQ
UniProt P53621: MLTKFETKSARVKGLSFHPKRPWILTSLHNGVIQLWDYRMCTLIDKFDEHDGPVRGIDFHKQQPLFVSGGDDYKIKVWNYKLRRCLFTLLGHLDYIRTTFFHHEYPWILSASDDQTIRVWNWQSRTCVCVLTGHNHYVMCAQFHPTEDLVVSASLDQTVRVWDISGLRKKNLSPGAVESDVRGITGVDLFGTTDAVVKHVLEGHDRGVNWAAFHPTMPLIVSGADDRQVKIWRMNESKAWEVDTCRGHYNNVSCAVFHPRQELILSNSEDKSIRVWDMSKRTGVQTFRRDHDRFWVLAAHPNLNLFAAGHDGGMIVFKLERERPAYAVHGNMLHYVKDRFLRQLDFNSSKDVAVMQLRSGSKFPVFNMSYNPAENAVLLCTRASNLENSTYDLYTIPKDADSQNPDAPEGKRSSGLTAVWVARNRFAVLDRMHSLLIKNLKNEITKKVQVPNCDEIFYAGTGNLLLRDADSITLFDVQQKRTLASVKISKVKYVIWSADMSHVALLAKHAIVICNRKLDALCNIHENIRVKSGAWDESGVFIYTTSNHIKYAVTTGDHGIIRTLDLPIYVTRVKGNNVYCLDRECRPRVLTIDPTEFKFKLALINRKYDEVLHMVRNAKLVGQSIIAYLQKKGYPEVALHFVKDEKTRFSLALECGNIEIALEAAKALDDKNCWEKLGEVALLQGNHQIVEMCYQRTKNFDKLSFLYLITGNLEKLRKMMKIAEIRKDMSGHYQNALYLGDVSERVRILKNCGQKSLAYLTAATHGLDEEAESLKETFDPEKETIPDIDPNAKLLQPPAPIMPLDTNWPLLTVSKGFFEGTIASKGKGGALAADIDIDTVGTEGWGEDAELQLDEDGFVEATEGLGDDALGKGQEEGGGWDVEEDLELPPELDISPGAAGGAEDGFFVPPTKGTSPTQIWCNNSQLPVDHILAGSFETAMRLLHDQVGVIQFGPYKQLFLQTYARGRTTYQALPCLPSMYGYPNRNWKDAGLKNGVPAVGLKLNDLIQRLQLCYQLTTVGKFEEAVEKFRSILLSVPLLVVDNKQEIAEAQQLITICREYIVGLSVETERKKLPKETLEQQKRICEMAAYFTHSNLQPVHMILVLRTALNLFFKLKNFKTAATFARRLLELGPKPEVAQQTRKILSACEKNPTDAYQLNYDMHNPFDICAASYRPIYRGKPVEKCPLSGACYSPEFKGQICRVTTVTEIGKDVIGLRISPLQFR
UniProt Q8NFW8: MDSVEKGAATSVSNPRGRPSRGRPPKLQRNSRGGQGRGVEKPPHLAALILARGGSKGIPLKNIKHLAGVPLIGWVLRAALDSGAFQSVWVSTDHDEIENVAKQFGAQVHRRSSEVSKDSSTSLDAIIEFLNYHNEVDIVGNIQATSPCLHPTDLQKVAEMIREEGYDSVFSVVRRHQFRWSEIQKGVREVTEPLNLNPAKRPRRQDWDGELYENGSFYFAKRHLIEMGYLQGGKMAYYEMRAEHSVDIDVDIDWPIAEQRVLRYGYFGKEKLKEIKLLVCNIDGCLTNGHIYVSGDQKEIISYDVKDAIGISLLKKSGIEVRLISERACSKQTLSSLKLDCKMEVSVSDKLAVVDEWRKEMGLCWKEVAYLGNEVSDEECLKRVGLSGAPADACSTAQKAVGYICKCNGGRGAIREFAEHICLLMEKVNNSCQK

Compound: CC1Cc2ccccc2N1C(=O)C1CCCN(C1)C(=O)CCl (mixture of isomers) [TRIM25 ligand 11 (diastereomer mixture)]
Experiment: probe-labelled cysteine peptide fold change vs DMSO (competition) (log2 fold change); higher = less target engagement (more negative = stronger competition)
Settings: THP-1, incubation time: 4 h
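Note: competitive chemoproteomic profiling in live THP-1 cells with an iodoacetamide desthiobiotin (IA-DTB) probe, comparing probe-labelled peptide intensities in compound-treated cells against DMSO-treated controls.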

Target	probe-labelled cysteine peptide fold change (10 µM)	probe-labelled cysteine peptide fold change (50 µM)
CNP_P09543_335_AHITLGCAADVEAVQTGLDLLEILRQEK (UniProt P09543)	-0.271	-0.0579
CNOT1_A5YKK6_1457_NLTAGMAMITCR (UniProt A5YKK6)	0.02	0.106
CMIP_Q8IY22_514_FAEDPRQEVHSCLLSVR (UniProt Q8IY22)	0.0466	0.0762
COPG1_Q9Y678_706_SLPYNQPGTCYTLVALPK (UniProt Q9Y678)	-0.0508	-0.0255
CNOT9_Q92600_99_VCNALALLQCVASHPETR (UniProt Q92600)	-0.241	-0.145
CNOT1_A5YKK6_1541_YCDPVVLTYQAER (UniProt A5YKK6)	-0.219	0.0536
COG2_Q14746_415_FREIAGSLEAALTDVLEDAPAESPYCLLASHR (UniProt Q14746)	0.15	0.0753
CMIP_Q8IY22_455_TLGCYVEILK (UniProt Q8IY22)	-0.036	0.0363
COPG2_Q9UBF2_420_AIVDCIISIVEENPESK (UniProt Q9UBF2)	0.359	0.12
COPA_P53621_1148_ILSACEK (UniProt P53621)	-0.0391	0.0395
COPA_P53621_453_KVQVPNCDEIFYAGTGNLLLR (UniProt P53621)	-0.0464	0.105
COPS4_Q9BT78_70_QLLTDFCTHLPNLPDSTAK (UniProt Q9BT78)	-0.14	-0.0838
CNOT4_O95628_56_IRTDENGLCPACR (UniProt O95628)	-0.144	-0.114
CMAS_Q8NFW8_405_AVGYICK (UniProt Q8NFW8)	0.0445	0.0947

Record cards, as listed above.
CNOT1_A5YKK6_1541_YCDPVVLTYQAER (UniProt A5YKK6) as listed: probe-labelled cysteine peptide fold change (10 µM): -0.219; probe-labelled cysteine peptide fold change (50 µM): 0.0536
CMAS_Q8NFW8_405_AVGYICK (UniProt Q8NFW8) as listed: probe-labelled cysteine peptide fold change (10 µM): 0.0445; probe-labelled cysteine peptide fold change (50 µM): 0.0947
